# No constants are given. Whether binding was seen depends on the method and setting. In cells and extracts the contact can be indirect. Some results given as binding are weak or reduced against the parent protein; the word gives no strength.
# The chains behind the UniProt entries cited, without tags or fusion partners. Where a name states a change or a piece, a line headed by the entry shows the natural chain unless it says otherwise.
# UniProt P06730: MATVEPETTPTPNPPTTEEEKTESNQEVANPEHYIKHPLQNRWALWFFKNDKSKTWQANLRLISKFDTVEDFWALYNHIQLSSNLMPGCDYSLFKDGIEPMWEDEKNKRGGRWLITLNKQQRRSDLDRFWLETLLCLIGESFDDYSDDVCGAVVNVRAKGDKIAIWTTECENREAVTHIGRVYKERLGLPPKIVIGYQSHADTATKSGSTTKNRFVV
# Target: His-tagged eIF4E (purified) (human) (UniProt P06730)
# Test: pulldown: peptide on TentaGel resin, His-tagged eIF4E, Western blot
binder,measurement,value
YPYAASPA (synthesized on and bound to TentaGel resin) [peptide-8 (linear)],binding,binds

# Source: patent US20200087345A1
